Results reported in paper PMC8102152.
The exact form of at least one protein or probe is not confirmed. Protein sequences can lack the tags named with them.

Test system: T1, MbkZ (Streptomyces sp. MBK6)
T1 sequence (limits assumed): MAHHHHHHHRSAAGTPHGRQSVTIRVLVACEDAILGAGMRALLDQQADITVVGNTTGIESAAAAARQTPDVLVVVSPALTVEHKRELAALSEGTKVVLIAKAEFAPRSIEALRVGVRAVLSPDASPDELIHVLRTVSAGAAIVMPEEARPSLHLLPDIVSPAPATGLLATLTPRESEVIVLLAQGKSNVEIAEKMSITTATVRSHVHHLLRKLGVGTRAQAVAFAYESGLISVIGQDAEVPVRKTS
Experiment: EMSA
Conditions: 266 nM protein, 0.63 nM DNA; 20 mM HEPES, 50 mM (NH4)2SO4, 1 mM DTT, 50 mM KCl, 5 mM MgCl2, 1% Tween 20, 13.3 mM Tris, 80 mM NaCl, 8% glycerol; pH of binding mix not stated; recombinant protein; protein details: N-terminal His-tag plus 12 aa linker; label: 5'-DY682; probe letters rebuilt from the primers and the genome

Row | Sequence | binding result
1 | AGATGGCGTCTGGGAACCGCTGGCTTTGTCATCCCCTCCAGTATGCGCCCATCCGGGCCCGCCGGGGCGATCCCGGCGGCTCCGGATGCCGGCCGGCCGCCCCGCGGCCGCCTCCCGGCCGCTCCCCGTCCTCAACGAATGGTGGAGACCACCGGGTGGGCCGGGGCAGCCTGGCGTGGAGTGGAGAAATCCATCATTGGATGGATGACAGGAATCGGGACGGCTGAAAAACTCAAGCCAGAGTTTCGCATTCAAACACCTCTGCCACCGGCGAACAGGCAGCGCTCCGGCGGGGGCTTGAACACGGGTCTCCCCAATGGCGCGACACCGCTGACACGCTGGTCCGATTTCCGTTTCGCAGCAGACCGGGGGAGTGGCTTGCGCATCAATATTCTGGGGCCCGTTTTCGTCGACGCCGAGGGACAGACACACGCCATTCGCGCCAACAAGGTG (double strand) [mbkD promoter (mbkDp)] | binds
2 | GAACCGAGGCGACGGAAGGAGGTGGGGTCCCGGTCGATCACGGCGACCGTGTGCCCCTGCTGCTCCAGGGCCTGGGCGAGCGCGGAGCCCACGCGCCCGCAGCCCATGATGACAATGTGCACGGCTTACACCACTCTTCTTCTCTGCCCTCTGACCGCGGTGAACATCCCGTTCATCTTCCTCTTTCGGCTCGACGGGCAAACATCTGCGGCCCCCACCGAGGGCCGCAGCCACCATCATGCCGGTCCACCGCCGTCGCACCCCGGTGGGGTGCTTCGTTTGCGTCGTTCAGTTCCGTTGAACCGGAGTGCGGTACGGCCTCAACACATTGACGGTGGTGTCGGGAATCACCCGTCCTGTGTTGAGGCCCGAATCCGATCGTTCGGTGGATGACGGGTGGGGGAGTGCTTGCCACGATGGACC (double strand) [redD promoter (redDp)] | binds
